Reference: article PMC2780400
Results are given in words; binding and its absence hold for the method and conditions named. Some binding calls cover weakened binding; strength is not graded here.

How the values were obtained:
[1] = biological target: T1, signal recognition particle (SRP), reconstituted from Ffh and 4.5S RNA (E. coli), P0AGD7; assay: co-sedimentation; as a1 (with GMP-PNP), for the pair FtsY and SRP: purified FtsY and purified SRP, SRP bound to the pelleted MtlA-189 RNCs; both purified; settings: remark: other sources report otherwise
T1 chain: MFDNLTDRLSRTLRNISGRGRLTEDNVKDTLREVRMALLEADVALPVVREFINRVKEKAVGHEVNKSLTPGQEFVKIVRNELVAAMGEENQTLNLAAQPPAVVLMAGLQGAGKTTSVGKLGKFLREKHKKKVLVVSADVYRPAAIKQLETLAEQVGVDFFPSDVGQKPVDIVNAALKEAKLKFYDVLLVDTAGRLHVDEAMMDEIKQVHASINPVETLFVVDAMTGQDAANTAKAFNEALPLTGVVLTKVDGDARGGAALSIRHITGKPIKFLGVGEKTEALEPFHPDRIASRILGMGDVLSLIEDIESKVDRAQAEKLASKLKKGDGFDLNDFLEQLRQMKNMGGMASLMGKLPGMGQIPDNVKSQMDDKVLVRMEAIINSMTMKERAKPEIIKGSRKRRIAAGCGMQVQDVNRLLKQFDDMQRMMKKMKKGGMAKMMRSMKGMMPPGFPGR

[2] = biological target: T2, FtsY (purified) (E. coli), P10121; assay: co-IP; as a5, for the pair SRP and FtsY: purified SRP and purified FtsY with MtlA189 RNCs and GMP-PNP; anti-FtsY antibodies precipitate the RNCs only when SRP is present; both purified; settings: remark: other sources report otherwise
T2 chain: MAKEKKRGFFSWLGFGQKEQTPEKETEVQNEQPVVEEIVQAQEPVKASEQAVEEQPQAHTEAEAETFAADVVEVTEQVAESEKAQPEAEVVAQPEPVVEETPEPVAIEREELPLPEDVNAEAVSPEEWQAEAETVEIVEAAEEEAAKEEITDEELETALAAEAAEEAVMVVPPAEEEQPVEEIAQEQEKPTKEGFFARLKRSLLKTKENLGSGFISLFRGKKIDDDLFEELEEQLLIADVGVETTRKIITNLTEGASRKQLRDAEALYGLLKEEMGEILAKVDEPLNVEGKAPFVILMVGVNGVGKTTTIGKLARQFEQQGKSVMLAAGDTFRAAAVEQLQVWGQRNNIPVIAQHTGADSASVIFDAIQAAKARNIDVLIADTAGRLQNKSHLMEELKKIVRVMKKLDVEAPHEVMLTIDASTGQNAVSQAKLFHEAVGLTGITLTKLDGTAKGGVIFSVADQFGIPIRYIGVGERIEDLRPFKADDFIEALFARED

B1: FtsY (in vitro synthesized, purified, 35S-labelled), P10121 1-497 (receptor)
chain: MAKEKKRGFFSWLGFGQKEQTPEKETEVQNEQPVVEEIVQAQEPVKASEQAVEEQPQAHTEAEAETFAADVVEVTEQVAESEKAQPEAEVVAQPEPVVEETPEPVAIEREELPLPEDVNAEAVSPEEWQAEAETVEIVEAAEEEAAKEEITDEELETALAAEAAEEAVMVVPPAEEEQPVEEIAQEQEKPTKEGFFARLKRSLLKTKENLGSGFISLFRGKKIDDDLFEELEEQLLIADVGVETTRKIITNLTEGASRKQLRDAEALYGLLKEEMGEILAKVDEPLNVEGKAPFVILMVGVNGVGKTTTIGKLARQFEQQGKSVMLAAGDTFRAAAVEQLQVWGQRNNIPVIAQHTGADSASVIFDAIQAAKARNIDVLIADTAGRLQNKSHLMEELKKIVRVMKKLDVEAPHEVMLTIDASTGQNAVSQAKLFHEAVGLTGITLTKLDGTAKGGVIFSVADQFGIPIRYIGVGERIEDLRPFKADDFIEALFARED
modifications: here or on the partner: 35S-labelled
binding [1]: binds

B2: signal recognition particle (SRP), reconstituted from Ffh and 4.5S RNA, P0AGD7 1-453 (complex)
chain: MFDNLTDRLSRTLRNISGRGRLTEDNVKDTLREVRMALLEADVALPVVREFINRVKEKAVGHEVNKSLTPGQEFVKIVRNELVAAMGEENQTLNLAAQPPAVVLMAGLQGAGKTTSVGKLGKFLREKHKKKVLVVSADVYRPAAIKQLETLAEQVGVDFFPSDVGQKPVDIVNAALKEAKLKFYDVLLVDTAGRLHVDEAMMDEIKQVHASINPVETLFVVDAMTGQDAANTAKAFNEALPLTGVVLTKVDGDARGGAALSIRHITGKPIKFLGVGEKTEALEPFHPDRIASRILGMGDVLSLIEDIESKVDRAQAEKLASKLKKGDGFDLNDFLEQLRQMKNMGGMASLMGKLPGMGQIPDNVKSQMDDKVLVRMEAIINSMTMKERAKPEIIKGSRKRRIAAGCGMQVQDVNRLLKQFDDMQRMMKKMKKGGMAKMMRSMKGMMPPGFPGR
binding [2]: binds
